Measurements published in patent publication US20230287095A1.
Substitutions are numbered along the chain they refer to. Results are given in words; binding and its absence hold for the method and conditions named. Some results given as binding are weak or reduced against the parent protein; the word gives no strength.

Chains of the proteins cited; added tags and fusions are not shown.
UniProt Q12904: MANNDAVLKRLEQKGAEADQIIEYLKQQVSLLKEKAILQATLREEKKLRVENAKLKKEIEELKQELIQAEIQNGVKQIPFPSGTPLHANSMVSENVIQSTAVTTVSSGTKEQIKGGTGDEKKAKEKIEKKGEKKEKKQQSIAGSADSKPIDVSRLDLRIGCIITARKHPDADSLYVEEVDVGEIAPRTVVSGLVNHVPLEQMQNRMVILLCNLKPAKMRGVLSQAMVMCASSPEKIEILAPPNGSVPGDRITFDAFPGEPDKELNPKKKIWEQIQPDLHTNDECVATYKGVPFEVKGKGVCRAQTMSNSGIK

B1: Chimeric Parental (antibody, V domains shown)
VH: AVHLVESGGGFVQPTESLKISCAASGFTFSDAAMYWVRQAPGKGLEWVARIRTKPNNYATYYADSVKGRFTISRDDSKSMVYLQMDNLKTEDTAMYYCTSWSYDFDYWGQGVMVTVSS
VL: DIVMTQGALPNPVPSGESASITCQSSKSLLHSSGKTYLNWYLQRPGQSPHLLIYWMSTRASGVSDRLSGSGSGTDFTLKISSVEAEDVGVYYCQQFLEYPLTFGSGTKLEIK
B2: Humanized HC4 + LC1 (antibody, human IgG1, kappa, V domains shown)
VH: EVQLVESGGGLVQPGGSLKLSCAASGFTFSDAAIYWVRQASGKGLEWVARIRTKPNNYATYYAASVKGRFTISRDDSNSTAYLQMNSLKTEDTAVYYCTSWSYDFDYWGQGTLVTVSS
VL: DIVMTQSPLSLPVTPGEPASISCRSSKSLLHSSGKTYLNWYLQKPGQSPQLLIYWMSNRASGVPDRFSGSGSGTDFTLKISRVEAEDVGVYYCQQFLEYPLTFGQGTKLEIKR
B3: Humanized HC5 + LC1 (antibody, human IgG1, kappa, V domains shown)
VH: B2 VH with E1A, I34M
VL: B2 VL
B4: Humanized HC1 + LC1 (antibody, human IgG1, kappa, V domains shown)
VH: B2 VH with I34M, A49G, N78K, S79N
VL: B2 VL

target: human pro-EMAPII (human) (UniProt Q12904); experiment: ELISA, plate coated with human pro-EMAPII

Binder | binding
B1 | binds
B2 | binds
B3 | binds
B4 | binds
